# Experimental data: paper PMC7819943, “Rice protein-binding microarrays: a tool to detect cis-acting elements near promoter regions in rice”
# By UniProt entry, the sequences of proteins in these tests, tags left out.
# UniProt Q0JBA9, entry or part of it: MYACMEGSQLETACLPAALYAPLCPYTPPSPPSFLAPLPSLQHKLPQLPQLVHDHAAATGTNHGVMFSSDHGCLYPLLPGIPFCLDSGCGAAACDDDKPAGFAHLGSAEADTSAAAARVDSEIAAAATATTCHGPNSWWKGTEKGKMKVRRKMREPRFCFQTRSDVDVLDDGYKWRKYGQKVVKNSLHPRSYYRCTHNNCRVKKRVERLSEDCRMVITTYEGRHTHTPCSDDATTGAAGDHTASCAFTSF
# Some of the results follow.
# Biological target: OsWRKY34 (Oryza sativa, UniProt Q0JBA9 1-250)
# Test: protein-binding microarray (RPBM); PBS, 2% BSA, 51.3 ng/ul salmon testes DNA, 50 uM zinc acetate, 200 nM TF, 25 C, 1 h; high values mean tight binding
# Details: protein: recombinant; tags: N-terminal polyhistidine and DsRed monomer fusion (pET32a); label: CyDye5-dUTP incorporated in the synthesized complementary strand; 3' TTTTT single-stranded linker to array surface; dsDNA, one strand shown
# Summary of the method: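 Transcription factors were made in E. coli BL21-CodonPlus as N-terminal fusions to a polyhistidine tag and DsRed, then purified on Ni–NTA. After primer extension with Cy5-dUTP and blocking with 2% BSA, a custom Agilent array was exposed for 1 h at 25 °C to 200 nM protein in PBS, 2% BSA, salmon testes DNA and 50 µM zinc acetate. Washed arrays were scanned on an Axon 4000B, and the binding signal is per-feature fluorescence intensity in arbitrary units.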
row,Sequence,binding signal
1,TTTTCTTTTCTTTTCTTTTTTGCATGTTTGGGCGGCGGCGCGGAGTCACCTAGTGCAG,8330 fluorescence intensity (a.u.)
2,GAAAGCCGCCGCCGCCGCCGCCCTTCTACTTCCGCCGCCTCGGAGTCACCTAGTGCAG,8270 fluorescence intensity (a.u.)
3,CATGATGACACGCGTTTTCTTTTTGTTCATGTCTCCTCGACGGAGTCACCTAGTGCAG,12500 fluorescence intensity (a.u.)
4,TTAATCCCATTTGTATTTTTTCTCAAACTTTGTGGACTGTCGGAGTCACCTAGTGCAG,8130 fluorescence intensity (a.u.)
5,AGGCTATGAGAGCGAACGTGGAGGCTCTTTTTTCTATTTCCGGAGTCACCTAGTGCAG,8340 fluorescence intensity (a.u.)
6,CACAGTGCCTTATTTCAAAATGAAACTATTTCTTCACATACGGAGTCACCTAGTGCAG,8020 fluorescence intensity (a.u.)
7,GTCGCCTCGTCTTGCCTCGCCTCGTCCAAGGTCAACGAGACGGAGTCACCTAGTGCAG,8740 fluorescence intensity (a.u.)
8,TTAATGTGTTACGTTCGATTGATCCATCCAACCTACTTGCCGGAGTCACCTAGTGCAG,8210 fluorescence intensity (a.u.)
9,CCATATGATCCGTTACCATATGTAACATGTGGTCACCTCACGGAGTCACCTAGTGCAG,8650 fluorescence intensity (a.u.)
10,CCGCGACCACACACAGAACCCGCTCGGAAACACAAACATCCGGAGTCACCTAGTGCAG,8940 fluorescence intensity (a.u.)
11,TCCGTCCGTCCTAGTCCAGTCAAACTTCTTACTCTTCCAACGGAGTCACCTAGTGCAG,10200 fluorescence intensity (a.u.)
12,TCAATTTTTCCGTCACATCATTCCAATCTCTTCAATTTTCCGGAGTCACCTAGTGCAG,9420 fluorescence intensity (a.u.)
13,CTCTCTCTCTATCACTCTGCTCAGCTCAAGTAGCCAGCTCCGGAGTCACCTAGTGCAG,8040 fluorescence intensity (a.u.)
14,GGCGTATGTTGGCTTGTATATTGATCTTGTGTCTTGATCTCGGAGTCACCTAGTGCAG,8950 fluorescence intensity (a.u.)
15,CAATCTATTGTGTGTTCATACCTTGTTATACCTAATTTTACGGAGTCACCTAGTGCAG,9170 fluorescence intensity (a.u.)
16,GGGATCCCCTCCTTGTCCTGGATCTTCGCCTTCACGTTGTCGGAGTCACCTAGTGCAG,8340 fluorescence intensity (a.u.)
17,AATCCATGGCTCCACACAATCTCTCCACCAACTCATTTCGCGGAGTCACCTAGTGCAG,10100 fluorescence intensity (a.u.)
18,GATTCCTTGTTTTTCTTAGCTTTTTCAGCTGAGGCTCTCGCGGAGTCACCTAGTGCAG,11300 fluorescence intensity (a.u.)
19,ACAGCCTATATACACTACTCACTCCGTCTCAGAATATAAGCGGAGTCACCTAGTGCAG,8900 fluorescence intensity (a.u.)
20,ACCTTCCAATCCTATCAGATCATCGAACTCCTTAACCGAACGGAGTCACCTAGTGCAG,8370 fluorescence intensity (a.u.)
21,ACGAAAACCCCAAATTACCCTCGCACACCTCGGCTTGTTTCGGAGTCACCTAGTGCAG,10000 fluorescence intensity (a.u.)

# Not a retest: entries from further up.
row,Sequence,binding signal
17,AATCCATGGCTCCACACAATCTCTCCACCAACTCATTTCGCGGAGTCACCTAGTGCAG,10100 fluorescence intensity (a.u.)
18,GATTCCTTGTTTTTCTTAGCTTTTTCAGCTGAGGCTCTCGCGGAGTCACCTAGTGCAG,11300 fluorescence intensity (a.u.)
19,ACAGCCTATATACACTACTCACTCCGTCTCAGAATATAAGCGGAGTCACCTAGTGCAG,8900 fluorescence intensity (a.u.)

# (continued)

row,Sequence,binding signal
1,CAAGCTACCACCACCATCTTCTCCTTCTTCTTCCTCTCCTCGGAGTCACCTAGTGCAG,8570 fluorescence intensity (a.u.)
2,TGTGTGTGCTATGATTTTTTTTCTTCTTCACCAGAACAAACGGAGTCACCTAGTGCAG,14100 fluorescence intensity (a.u.)
3,TAGTGGTGCCTTTTACCTCCCATTGTTGTCCTTTGATAGGCGGAGTCACCTAGTGCAG,8080 fluorescence intensity (a.u.)
4,CGGTCCCAGACCCTACCTGCCTGCTGCCGTGCCACTGAACCGGAGTCACCTAGTGCAG,8620 fluorescence intensity (a.u.)
5,ATTTGCAAGTTCAATTTTGGCCCTTTTTTTGTGTGATTCACGGAGTCACCTAGTGCAG,9550 fluorescence intensity (a.u.)
6,TTTTGTTTCTGATTTCAGCTATTCTTCTTCTTGCATCCCACGGAGTCACCTAGTGCAG,9440 fluorescence intensity (a.u.)
7,ACCTAACTCATGATCCATTCCCATTCCCGTGCAATTTTTCCGGAGTCACCTAGTGCAG,11700 fluorescence intensity (a.u.)
8,GGGGCGGGAGGGAGGGAGCGAATCTGAGGTGGTGGCTATGCGGAGTCACCTAGTGCAG,13700 fluorescence intensity (a.u.)
9,CTGATTTGCGGGTTCCACATGGATTTTATTTTTTTGTTTCCGGAGTCACCTAGTGCAG,11400 fluorescence intensity (a.u.)
10,TACTTTAAGCATAACTTTTCGTTTTTTATATTTGCACAAACGGAGTCACCTAGTGCAG,9200 fluorescence intensity (a.u.)
11,CCCGACCATTTTCATTCCTACCTACAGCTACGAGGCACTTCGGAGTCACCTAGTGCAG,10100 fluorescence intensity (a.u.)
12,GCTTTCTTTCTTGTTTTCAGACTTATTTTCCTGTTTCATTCGGAGTCACCTAGTGCAG,13900 fluorescence intensity (a.u.)
13,GGGACCTTCTTGAGCTTTCCCGTGTTTTCTATTCATGTAGCGGAGTCACCTAGTGCAG,11500 fluorescence intensity (a.u.)
14,TTTTTCCACTGGTTTGGTTGCAGCTATGTTACTCTTTGAACGGAGTCACCTAGTGCAG,14300 fluorescence intensity (a.u.)
15,TTCTGGTCTCGCTGTTAGATTCACCAAGAAACTCATTTCTCGGAGTCACCTAGTGCAG,8090 fluorescence intensity (a.u.)
16,ACTCTACCACCACCACCACCGCGGAGTCACACCCGAAGCCCGGAGTCACCTAGTGCAG,13600 fluorescence intensity (a.u.)
17,TCTTGTCTGTTCTTCAGTAATCATCCTTTTGTCATTCAGACGGAGTCACCTAGTGCAG,10200 fluorescence intensity (a.u.)
18,AGTTGAGTGGTACTGTAGTGTTGTTGTTCTCTTCCCTTGGCGGAGTCACCTAGTGCAG,9940 fluorescence intensity (a.u.)
19,ATCGTTGATTTTTTTACTTACGTTTGGCCATTGTTCTCATCGGAGTCACCTAGTGCAG,11500 fluorescence intensity (a.u.)
20,TGCGCATGGTAGGAAGGTTATGACGTGTTTGTATTCTCTTCGGAGTCACCTAGTGCAG,9600 fluorescence intensity (a.u.)
21,GATTATAAAATAAATCTTAAATGACTATTTAAATCGATTCCGGAGTCACCTAGTGCAG,8040 fluorescence intensity (a.u.)
